In PubChem BioAssay AID493036 (Sanford-Burnham Center for Chemical Genomics, 2011) one finds cell count data, which are given here for 67 compounds.

The list shows a part of the results.

A short description of the experiment: NTR1-driven beta-arrestin-GFP spot formation – imaging, U2OS cells, high content, primary screen (AID 493036) (AID 493036). The settings on record: agonist mode, measured here: cell count, cytotoxicity flag, at 20 µM.
In turn, `CCC(CO)(C(=O)OC1CN2CCC1CC2)c1ccccc1` (configuration not stated) gave a cell count of 48 cells.

`COc1cc(OC)cc(C(=O)NCC2(N3CCOCC3)CCCCC2)c1` came in with a cell count of 45 cells.

The compound `COc1cccc(C(=O)N(c2cc(C)cc(C)c2)C2CCN(C(=O)OC(C)(C)C)CC2)c1` gave a cell count of 95 cells.

For the compound `CCCOc1ccc(C)cc1CN(CCCl)CCCl`, the cell count was 52 cells.

Compound `CN1CCC(Nc2ccc(Cl)cc2)CC1` registered a cell count of 73 cells.

Consider `CN1CCC(Nc2ccc(F)c(Cl)c2)CC1`, for which the cell count came out at 69 cells.

For `CCOc1ncccc1C(=O)NCC1(N2CCOCC2)CCCCC1`, the cell count is 81 cells.

Compound `CCCOc1ccc(C(=O)NCC2(N(C)C)CCCCC2)cc1` yielded a cell count of 49 cells.

Turning to `O=C(O)C1(Nc2ccccc2)CCN(Cc2ccccc2)CC1`, the cell count is 101 cells.

In the case of `CC(C)(C)OC(=O)N1CCC(Nc2ccccc2)CC1`, the cell count was determined as 29 cells.

Take `CCN1CCC(Nc2cccc(F)c2)CC1`: the cell count amounted to 45 cells.

In the case of `CN(C)c1ccc(C(=O)NCC2(N3CCCCC3)CCCCC2)cc1`, the cell count worked out at 65 cells.

For `O=C(NCC1(N2CCCCC2)CCCCC1)c1ccco1`, the cell count was found to be 56 cells.

In turn, `COc1cc(OC)cc(C(=O)NCC2(N3CCCCC3)CCCCC2)c1` showed a cell count of 52 cells.

For `Fc1ccccc1NC1CCN(Cc2ccccc2)CC1`, the cell count worked out at 50 cells.

`Cc1ccc(C(=O)NCC2(N3CCCCC3)CCCCC2)o1` registered a cell count of 83 cells.

Regarding `CCCN1CCC(Nc2cc(OC)cc(OC)c2)CC1`, the cell count came out at 54 cells.

In the case of `c1ccc(CN2CCC(Nc3ccccc3)CC2)cc1`, the cell count was 49 cells.

`CN(C)C1(CNC(=O)c2cccc(C#N)c2)CCCCC1` gave a cell count of 111 cells.

The compound `CC(C)(C)OC(=O)N1CCC(N(C(=O)c2ccccc2)c2ccc(Cl)cc2)CC1` yielded a cell count of 60 cells.

For `N#Cc1ccc(C(=O)NCC2(N3CCCCC3)CCCCC2)cc1`, the cell count was determined as 64 cells.

For `N/C(=N\O)c1c(N)no[n+]1[O-]`, the cell count was 61 cells.

`CCOC(=O)N1CCC(Nc2ccc(C)cc2)CC1` displayed a cell count of 74 cells.

Compound `O=C(OC1CN2CCC1CC2)C1c2ccccc2C=Cc2ccccc21` (configuration not stated) yielded a cell count of 44 cells.

The compound `CCc1cc(C(=O)NCC2(N3CCCCC3)CCCCC2)sc1C` yielded a cell count of 74 cells.

Take `O=C(NCC1(N2CCOCC2)CCCCC1)c1cc(Br)ccc1Cl`: the cell count is 58 cells.

The compound `COc1cc(C(=O)NCC2(N3CCOCC3)CCCCC2)cc(OC)c1C` showed a cell count of 56 cells.

Consider `COc1ccc(C(=O)NCC2(N3CCOCC3)CCCCC2)cc1OC`, for which the cell count was 41 cells.

Regarding `O=C(NCC1(N2CCCCC2)CCCCC1)c1cncc(Br)c1`, the cell count is 61 cells.

`CN1CCC(Nc2cccc(F)c2)CC1` had a cell count of 63 cells.

Take `CN(C)c1cccc(C(=O)NCC2(N3CCCCC3)CCCCC2)c1`: the cell count was determined as 68 cells.

`COc1ccc(CN(CCCl)CCCl)cc1Cl` came in with a cell count of 45 cells.

For the compound `CC(C)c1ccc(NC2CCN(C(=O)OC(C)(C)C)CC2)cc1`, the cell count amounted to 62 cells.

Compound `O=C(NCC1(N2CCOCC2)CCCCC1)c1cc(F)c(F)cc1Cl` came in with a cell count of 41 cells.

As to `COc1cc(OC)c(C(=O)NCC2(N(C)C)CCCCC2)cc1OC`, the cell count worked out at 95 cells.

`O=C(NCC1(N2CCCCC2)CCCCC1)c1cccc(C(F)(F)F)c1` displayed a cell count of 53 cells.

Turning to `CN1CCN(CCOC(=O)C(O)(c2ccccc2)c2ccccc2)CC1`, the cell count amounted to 60 cells.

With `COc1ccc(NC2CCN(C(=O)OC(C)(C)C)CC2)cc1`, the cell count was 45 cells.

For `CC(C)c1ccc(C(=O)NCC2(N3CCOCC3)CCCCC2)cc1`, the cell count came out at 51 cells.

The compound `COc1cc(C(=O)NCC2(N3CCCCC3)CCCCC2)ccc1OC(F)F` yielded a cell count of 46 cells.

Regarding `O=C(NCC1(N2CCOCC2)CCCCC1)c1cc(=O)[nH]c2ccccc12`, the cell count was 45 cells.

For `O=C(NCC1(N2CCCCC2)CCCCC1)c1ccc(OC(F)F)cc1`, the cell count worked out at 34 cells.

Consider `CSc1ccc(C(=O)NCC2(N3CCOCC3)CCCCC2)cc1`, for which the cell count was 57 cells.

The compound `O=C(NCC1(N2CCCCC2)CCCCC1)c1cccc([N+](=O)[O-])c1` had a cell count of 27 cells.

For the compound `N#CC1(Nc2ccccc2)CCN(CCc2ccccc2)CC1`, the cell count was found to be 46 cells.

In turn, `CCN1CCC(Nc2ccc(Cl)cc2)CC1` gave a cell count of 60 cells.

For the compound `Cc1ccc(OCC(C)C)c(CN(CCCl)CCCl)c1`, the cell count was found to be 40 cells.

With `CCOC(=O)N1CCC(Nc2cccc(C)c2)CC1`, the cell count was found to be 59 cells.

On to `CCOc1ccc(C)cc1CN(CCCl)CCCl`, for which the cell count stood at 53 cells.

Turning to `COc1ccc(NC2CCN(CCc3ccccc3)CC2)c(OC)c1`, the cell count stood at 59 cells.

In turn, `CCOC(=O)N1CCC(Nc2ccc(F)cc2)CC1` gave a cell count of 57 cells.

Compound `O=C(NCC1(N2CCCCC2)CCCCC1)c1ccc(F)cc1` came in with a cell count of 47 cells.

Consider `CCCCOc1ccc(C(=O)NCC2(N3CCOCC3)CCCCC2)cc1`, for which the cell count was 74 cells.

For `O=C(NCC1(N2CCOCC2)CCCCC1)c1cc2ccccc2o1`, the cell count is 38 cells.

The compound `Cc1cc(C)cc(N(C(=O)c2ccccc2)C2CCN(C(=O)OC(C)(C)C)CC2)c1` registered a cell count of 73 cells.

Turning to `O=C(NCC1(N2CCCCC2)CCCCC1)c1ccc(Cl)nc1`, the cell count was 52 cells.

In turn, `CCOC(=O)N1CCC(Nc2ccc(OC)cc2)CC1` displayed a cell count of 79 cells.

The compound `COc1ccc(Cl)cc1C(=O)NCC1(N2CCOCC2)CCCCC1` yielded a cell count of 52 cells.

`O=C(OC1CN2CCC1CC2)C1c2ccccc2Oc2ccccc21` (configuration not stated) came in with a cell count of 64 cells.

In the case of `N#CC1(Nc2ccccc2)CCN(Cc2ccccc2)CC1`, the cell count is 50 cells.

As for `O=C(NCC1(N2CCCCC2)CCCCC1)c1ccc(Cl)s1`, the cell count was 44 cells.

The compound `O=C(NCC1(N2CCCCC2)CCCCC1)c1cccs1` gave a cell count of 53 cells.

`O=C(NCC1(N2CCCCC2)CCCCC1)c1ccc(=O)[nH]c1` displayed a cell count of 56 cells.

In the case of `COc1ccc(C(=O)NCC2(N3CCCCC3)CCCCC2)c(OC)c1OC`, the cell count amounted to 49 cells.

The compound `CC(C)(C)OC(=O)N1CCC(N(C(=O)c2ccccc2)c2ccc(F)cc2)CC1` showed a cell count of 82 cells.

As for `COc1ccc(C(=O)NCC2(N3CCCCC3)CCCCC2)cc1`, the cell count was determined as 50 cells.

`CSc1ccccc1C(=O)NCC1(N2CCCCC2)CCCCC1`: the cell count came to 57 cells.
